These results are taken from the GenesisPotency data set.

In all, about 73,000 compounds went through this assay and about 1,800 (2.5%) were called active. Another 13% or so got no clear call; they are omitted. Calls come from the whole dose curve; as a rule, active = well fitted activation curve with a large enough effect; inconclusive = small, poorly fitted or top-dose-only effect; inactive = no such curve, though single readings can be large or run the other way. The list shows a part of the results.

This test can be described thus: qHTS Assay for Agonists of the Thyroid Stimulating Hormone Receptor: Activators of Intracellular cAMP Concentrations in Parental HEK 293.
`[Na+].[O-][Br+2]([O-])[O-]`: the outcome was inactive.
